Results are given in words; binding and its absence hold for the method and conditions named. Binding seen in cells or lysates may run through a third protein. Some results given as binding are weak or reduced against the parent protein; the word gives no strength. Values belong to the binder of their own block, whether it stands above or below them.
Legend:
[1] = molecular target: T1, Apolipoprotein E (mouse (endogenous in BMDM)) (UniProt P08226); assay: co-IP; BMDM membrane extracts from WT and P2X4 KO mice immunoprecipitated with anti-P2X4 or anti-ApoE antibodies crosslinked to magnetic beads, 4 °C o/n; immunoblotted with anti-ApoE and anti-P2X4
T1 sequence: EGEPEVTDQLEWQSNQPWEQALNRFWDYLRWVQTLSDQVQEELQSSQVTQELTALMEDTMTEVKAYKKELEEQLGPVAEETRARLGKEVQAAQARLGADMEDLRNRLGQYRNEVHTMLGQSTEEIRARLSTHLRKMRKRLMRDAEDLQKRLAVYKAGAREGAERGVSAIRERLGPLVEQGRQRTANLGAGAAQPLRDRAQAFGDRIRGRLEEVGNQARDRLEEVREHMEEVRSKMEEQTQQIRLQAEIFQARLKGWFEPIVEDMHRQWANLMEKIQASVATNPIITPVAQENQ

[2] = molecular target: T2, P2X4 receptor (mouse (endogenous in BMDM)) (UniProt Q9JJX6); assay: as above
T2 sequence: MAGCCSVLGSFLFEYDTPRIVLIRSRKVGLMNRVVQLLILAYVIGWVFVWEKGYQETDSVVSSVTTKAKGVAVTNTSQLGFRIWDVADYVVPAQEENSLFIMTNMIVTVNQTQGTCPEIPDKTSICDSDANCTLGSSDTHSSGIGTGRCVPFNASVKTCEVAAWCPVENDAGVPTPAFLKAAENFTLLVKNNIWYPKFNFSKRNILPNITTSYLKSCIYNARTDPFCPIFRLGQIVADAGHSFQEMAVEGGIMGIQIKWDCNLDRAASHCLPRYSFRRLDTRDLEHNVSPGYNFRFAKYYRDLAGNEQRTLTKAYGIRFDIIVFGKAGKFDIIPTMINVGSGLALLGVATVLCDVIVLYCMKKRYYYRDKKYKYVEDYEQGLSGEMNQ

binding [1]: binds
B1: P2X4 receptor (receptor, UniProt Q9JJX6 1-388)
chain: T2 sequence

binding [2]: binds
B2: Apolipoprotein E (protein, UniProt P08226 19-311)
chain: T1 sequence

Reference: article PMC10163120
